PubChem BioAssay AID743454 – Peter MacCallum Cancer Centre | 2014
Test: 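Genes whose loss kills vorinostat-resistant colon cancer cells under vorinostat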 (primary screen). Cell system: human HCT116-VR colon cancer cells, selected for vorinostat resistance. Reagent: siRNA pool against human genes, 40 nM siRNA pool. Duration: vorinostat for 24 h, read-out about 72 h after transfection. Challenge: vorinostat at 2.5 µM final. Measurement: 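Two measures, CellTiter-Fluor viability and luminescent caspase 3/7 activity, each as fold change against same-plate mock wells, mean of duplicates, then screen-wide robust z-score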. Direction: viability robust z-score: higher = more viable cells than screen typical; caspase robust z-score: higher = more caspase 3/7 activity than screen typical. Rule for the call: 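Hits are knock-downs in viability class RV1/RV2 or caspase class CA1/CA2, excluding ones that killed cells in the no-drug cell-count arm; hits then retested with single siRNAs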.
This is an unselected part of about 18,000 reagents. 450 of all reagents (2.5%) were called active. 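Single biological run; no consistent viability z cut-off exists, so the class columns, not z-scores, define the calls.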 Reagents against one gene are numbered here. Reagent sequences are not shown.

target | pool no. | viability hit class | caspase hit class | viability robust z-score | caspase robust z-score | outcome
POLR1C (RNA polymerase I and III subunit C) | 1 | no change | no change | -0.21 | -0.46 | inactive
MFAP3L (microfibril associated protein 3 like) | 1 | no change | no change | -1.29 | -0.94 | inactive
SLC68A1 | 1 | no change | no change | 0.55 | 0.64 | inactive
ANXA2R (annexin A2 receptor) | 1 | no change | no change | -0.59 | -0.98 | inactive
HS3ST4 (heparan sulfate-glucosamine 3-sulfotransferase 4) | 1 | no change | no change | 1 | -0.43 | inactive
FETUB (fetuin B) | 1 | no change | no change | 1.28 | 0.06 | inactive
MRPS35 (mitochondrial ribosomal protein S35) | 1 | no change | no change | -0.09 | 1.09 | inactive
SLC9C2 | 1 | no change | no change | 1.36 | 0.62 | inactive
BAIAP2L2 (BAR/IMD domain containing adaptor protein 2 like 2) | 1 | no change | no change | 0.74 | -0.18 | inactive
SNAPIN (SNAP associated protein) | 1 | no change | no change | 0.89 | 0.46 | inactive
SMG7 (SMG7 nonsense mediated mRNA decay factor) | 1 | no change | no change | -0.73 | 0.29 | inactive
CYSTM1 (cysteine rich transmembrane module containing 1) | 1 | no change | no change | 0.24 | -0.46 | inactive
LSM4 | 1 | no change | no change | -0.85 | -0.09 | inactive
HAGHL (hydroxyacylglutathione hydrolase like) | 1 | no change | no change | -0.04 | 1.17 | inactive
CCDC71 (coiled-coil domain containing 71) | 1 | no change | no change | 1.23 | 0.02 | inactive
KLF5 (KLF transcription factor 5) | 1 | no change | no change | 0.26 | -0.66 | inactive
ITPA (inosine triphosphatase) | 1 | no change | no change | -0.96 | -0.46 | inactive
EPHA7 (EPH receptor A7) | 1 | no change | no change | -0.72 | -0.09 | inactive
IFT70B (intraflagellar transport 70B) | 1 | no change | no change | 0.1 | -1.19 | inactive
TNFRSF13B (TNF receptor superfamily member 13B) | 1 | no change | no change | -0.88 | 1.01 | inactive
ECI1 (enoyl-CoA delta isomerase 1) | 1 | no change | no change | -0.05 | 3.23 | inactive
GPR15LG (G protein-coupled receptor 15 ligand) | 1 | no change | no change | 1.88 | 0.52 | inactive
HERC3 (HECT and RLD domain containing E3 ubiquitin protein ligase 3) | 1 | no change | no change | -0.83 | 0.9 | inactive
ADH1B (alcohol dehydrogenase 1B (class I), beta polypeptide) | 1 | no change | no change | 1.71 | -0.14 | inactive

The list goes on, starting with the last 8 of the part before.
target | pool no. | viability hit class | caspase hit class | viability robust z-score | caspase robust z-score | outcome
ITPA (inosine triphosphatase) | 1 | no change | no change | -0.96 | -0.46 | inactive
EPHA7 (EPH receptor A7) | 1 | no change | no change | -0.72 | -0.09 | inactive
IFT70B (intraflagellar transport 70B) | 1 | no change | no change | 0.1 | -1.19 | inactive
TNFRSF13B (TNF receptor superfamily member 13B) | 1 | no change | no change | -0.88 | 1.01 | inactive
ECI1 (enoyl-CoA delta isomerase 1) | 1 | no change | no change | -0.05 | 3.23 | inactive
GPR15LG (G protein-coupled receptor 15 ligand) | 1 | no change | no change | 1.88 | 0.52 | inactive
HERC3 (HECT and RLD domain containing E3 ubiquitin protein ligase 3) | 1 | no change | no change | -0.83 | 0.9 | inactive
ADH1B (alcohol dehydrogenase 1B (class I), beta polypeptide) | 1 | no change | no change | 1.71 | -0.14 | inactive
GNG5 (G protein subunit gamma 5) | 1 | no change | no change | -0.57 | 0.74 | inactive
MKRN3 (makorin ring finger protein 3) | 1 | no change | no change | 1.54 | -0.7 | inactive
ABTB1 (ankyrin repeat and BTB domain containing 1) | 1 | no change | no change | 0.22 | -1.1 | inactive
SLC16A11 | 1 | no change | no change | -0.27 | -0.52 | inactive
SEMA3D (semaphorin 3D) | 1 | no change | no change | 0 | -0.53 | inactive
C2orf15 (chromosome 2 open reading frame 15) | 1 | RV2 (reduced viability) | no change | -3.62 | 3.95 | active
DEFB127 (defensin beta 127) | 1 | no change | no change | -0.74 | 0.8 | inactive
RPL18 (ribosomal protein L18) | 1 | no change | no change | -5.16 | -0.96 | inactive
NRBP1 (nuclear receptor binding protein 1) | 1 | no change | no change | -0.15 | -0.64 | inactive
DPPA2 (developmental pluripotency associated 2) | 1 | no change | no change | 0.12 | 0.05 | inactive
SLAMF1 (signaling lymphocytic activation molecule family member 1) | 1 | no change | no change | -0.12 | -0.06 | inactive
PLD3 (phospholipase D family member 3) | 1 | no change | no change | 0.52 | 2.42 | inactive
TSPAN18 (tetraspanin 18) | 1 | no change | no change | 0.08 | 0.8 | inactive
TASL (TLR adaptor interacting with endolysosomal SLC15A4) | 1 | no change | no change | -0.83 | 0.85 | inactive
NMRK1 (nicotinamide riboside kinase 1) | 1 | no change | no change | 0.46 | 0.08 | inactive
TBX19 (T-box transcription factor 19) | 1 | no change | no change | 1.03 | -0.08 | inactive
SIAH2 (siah E3 ubiquitin protein ligase 2) | 1 | RV2 (reduced viability) | CA2 (caspase activation) | -2.92 | 10.9 | active
MAX (MYC associated transcriptional regulator X) | 1 | no change | no change | -0.48 | -0.1 | inactive
C4orf50 (chromosome 4 open reading frame 50) | 1 | no change | no change | 0.14 | 0.29 | inactive
CPVL (carboxypeptidase vitellogenic like) | 1 | no change | no change | 0.91 | -0.53 | inactive
ENKD1 (enkurin domain containing 1) | 1 | no change | no change | -0.7 | -0.32 | inactive
NUP35 (nucleoporin 35) | 1 | no change | no change | -0.19 | 0.19 | inactive
TWNK (twinkle mtDNA helicase) | 1 | no change | no change | 0.72 | -0.82 | inactive
DOCK2 (dedicator of cytokinesis 2) | 1 | no change | no change | 2.02 | -0.75 | inactive
HDGFL2 (HDGF like 2) | 1 | no change | no change | 1.6 | 0.22 | inactive
SEPTIN4 (septin 4) | 1 | no change | no change | -0.57 | 3.25 | inactive
SEPTIN4 (septin 4) | 2 | no change | no change | 0.86 | 0 | inactive
FLOT1 (flotillin 1) | 1 | no change | no change | 0.27 | 2.8 | inactive
MTM1 (myotubularin 1) | 1 | no change | no change | -1.96 | -1.23 | inactive
PTHLH (parathyroid hormone like hormone) | 1 | no change | no change | -0.23 | -0.26 | inactive
NUP160 (nucleoporin 160) | 1 | no change | no change | -0.45 | 4.45 | inactive
NOS1AP (nitric oxide synthase 1 adaptor protein) | 1 | no change | no change | -0.32 | -0.02 | inactive
ZMYM6 (zinc finger MYM-type containing 6) | 1 | no change | no change | 0 | 0.1 | inactive
NFIB (nuclear factor I B) | 1 | no change | no change | 0.78 | -0.78 | inactive
CYP26B1 (cytochrome P450 family 26 subfamily B member 1) | 1 | no change | no change | 0.21 | 1.08 | inactive
PANX1 (pannexin 1) | 1 | no change | no change | -0.08 | 0.31 | inactive
HLA-C (major histocompatibility complex, class I, C) | 1 | no change | no change | 0.83 | -0.2 | inactive
WDSUB1 (WD repeat, sterile alpha motif and U-box domain containing 1) | 1 | no change | no change | 0.33 | -0.76 | inactive
OR6M1 (olfactory receptor family 6 subfamily M member 1) | 1 | no change | no change | 0.38 | -0.73 | inactive
PLEKHM1 (pleckstrin homology and RUN domain containing M1) | 1 | no change | no change | 0.12 | 3.12 | inactive
ZNF653 (zinc finger protein 653) | 1 | no change | no change | 1.46 | -0.38 | inactive
DNAJC15 (DnaJ heat shock protein family (Hsp40) member C15) | 1 | no change | no change | -0.36 | -1.34 | inactive
OTUD7A (OTU deubiquitinase 7A) | 1 | no change | no change | -2.98 | 2.59 | inactive
TMEM131L (transmembrane 131 like) | 1 | no change | no change | 0.71 | 0.08 | inactive
FHL5 (four and a half LIM domains 5) | 1 | no change | no change | 1.09 | 0.02 | inactive
ARL6IP1 (ARL6 interacting reticulophagy regulator 1) | 1 | no change | no change | 0.64 | -0.9 | inactive
BAGE5 (BAGE family member 5) | 1 | no change | no change | -1.4 | 1.36 | inactive
NMB (neuromedin B) | 1 | no change | no change | -0.55 | 1.08 | inactive
IL2RG (interleukin 2 receptor subunit gamma) | 1 | no change | no change | -0.08 | -0.4 | inactive
